Assay results taken from PubChem BioAssay AID1259415 (National Center for Advancing Translational Sciences (NCATS), 2018).
Values joined by “and” are separate entries in the source; they are usually repeats but may differ in a detail not shown here. Equal values may be shown once. Screen size: about 410,000 compounds; about 18,000 (4.4%) were called active. The shares of active, inactive and inconclusive entries below differ from those in the screen. No stated cut-off is given here; in the data, active means activity change below about -60%; inconclusive means no clear call, values can overlap the other calls; inactive means above about -39%.
On the % scale 0 is the no-effect control and ±100 the full control effect.

Assay: qHTS Assay for inhibitors of the human cytomegalovirus (HCMV)
Settings: HFF cells, HCMV-luciferase reporter, 72 h; at 57.5 µM; stronger effect = lower value
Summary of the method: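 Luciferase read-out from HCMV-luciferase-infected HFFs (MOI 1 PFU/cell) 72 h post infection at 37C; compounds added after 16 h cell attachment; activity normalized between buffer-only basal and Salinomycin (10uM) inhibitor controls.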
In the case of `CCN(c1ccccc1)S(=O)(=O)c1nnc(NC(=O)CC(C)C)s1`, the activity change, negative = inhibition is reported as inactive: -17.5%.
In the case of `CC(=O)c1cccc(CN2CCC(C(=O)Nc3ccc(Oc4cccnc4)cc3)CC2)c1`, the activity change, negative = inhibition is reported as inconclusive: -40%.
For `CC1=CC(=C2C(=O)NC(=O)NC2=O)C=C(C(F)(F)F)N1Cc1ccccc1`, the activity change, negative = inhibition was inconclusive: -57.2%.
For `COc1cc(CNc2ccc(N3CCOCC3)cc2)ccc1OCC(=O)NC(C)(C)C`, the activity change, negative = inhibition was inconclusive: -53.2%.
In the case of `O=C(Nc1ccsn1)c1ccc(Cl)cc1Cl`, the activity change, negative = inhibition is reported as inactive: -4.36%.
For `CCc1ccc(NC(=O)CSc2nccn2-c2ccc(OC)cc2)cc1`, the activity change, negative = inhibition was active: -99.6%.
With `CCc1nc2ccc(C(=O)Nc3ccc(NC(C)=O)cc3)cn2c1N(C)CCC(C)C` the activity change, negative = inhibition was inactive: 20.5%.
For `Nc1cccc(SC2CC(=O)N(c3ccc(Cl)cc3C(=O)c3ccccc3)C2=O)c1` (stereo not given), the activity change, negative = inhibition was inconclusive: -59.2%.
In the case of `O=C(NCc1ccc(Cl)cc1)c1ccc2c(=O)n(CC3CCCO3)c(=S)[nH]c2c1` (stereo not given), the activity change, negative = inhibition is reported as inconclusive: -47.9%.
With `O=C(NCC1CCCO1)c1ccc(C(=O)NCC2CCCO2)cc1` (stereo not given) the activity change, negative = inhibition was inactive: -8.38%.
For `C[C@@H]1CN([C@@H](C)CO)C(=O)CCCn2nncc2CO[C@@H]1CN(C)C(=O)C1CC1`, the activity change, negative = inhibition was inactive: 7.15%.
For `COc1ccccc1CNC(=O)CSc1ccc(-c2cccs2)nn1`, the activity change, negative = inhibition was inconclusive: -46.8%.
For `CN(C(=O)COC(=O)CNC(=O)c1sc2ccccc2c1Cl)c1ccccc1`, the activity change, negative = inhibition was inconclusive: -57.5%.
For `O=C(CCC(=O)N1CCN(Cc2ccc(F)cc2)CC1)Nc1nnc(C2CCCCC2)s1`, the activity change, negative = inhibition was inconclusive: 0%.
In the case of `O=C(Nc1ccccc1)C1=C[C@@H](C2CCCCC2)C[C@@H](OCCCCO)O1`, the activity change, negative = inhibition is reported as inconclusive: -48%.
In the case of `COC(=O)/C(=C\c1ccc(O)cc1)c1nc2ccccc2[nH]1`, the activity change, negative = inhibition is reported as inactive: 28.8%.
For `Nc1nc(Sc2ccc([N+](=O)[O-])cc2[N+](=O)[O-])n[nH]1`, the activity change, negative = inhibition was inconclusive: -49.4%.
With `Cc1ccc2nc(N(CCCN(C)C)C(=O)c3ccc(S(=O)(=O)N4CCc5ccccc5C4)cc3)sc2c1` the activity change, negative = inhibition was active: -103%.
For `CC(C)N1CCC1(C)C(=O)Nc1nccc2cccnc12` (stereo not given), the activity change, negative = inhibition was inactive: -25.2%.
For `COc1ccccc1CN1C(=S)SC(C)(C)C1NO` (stereo not given), the activity change, negative = inhibition was inconclusive: -47.1%.
For `COc1ccc(C(C)(O)c2nc(-c3ccccc3)cs2)cc1` (stereo not given), the activity change, negative = inhibition was active: -78.2%.
For `CCOC(=O)CSc1ccc2nnc(CCNS(=O)(=O)c3ccccc3)n2n1`, the activity change, negative = inhibition was inactive: 3.21% and inactive: -28%.
In the case of `O=C(N/N=C/c1ccccc1OC(=O)c1ccc2c(c1)OCO2)c1cccc(F)c1`, the activity change, negative = inhibition is reported as inconclusive: -56%.
With `CC(CNC(=O)c1ccccc1[N+](=O)[O-])NC(=O)c1ccccc1[N+](=O)[O-]` (stereo not given) the activity change, negative = inhibition was inactive: 17.9%.
With `COc1ccccc1C(=O)NNC(=O)C1CCN(C(=O)OC(C)(C)C)CC1` the activity change, negative = inhibition was inactive: 6.11%.
With `COc1ccc(NCC2(c3ccnc(-c4cccc(O)c4)c3)CC2)cc1OC` the activity change, negative = inhibition was inconclusive: -40.3%.
For `COc1ccccc1N=Nc1c(C)[nH][nH]c1=O`, the activity change, negative = inhibition was inconclusive: -45.4%.
With `COc1cc2c(oc(=O)c3cc(C)cc(OC)c32)c2c(C3OC(C)C(O)C(C)(O)C3O)ccc(O)c12` (stereo not given) the activity change, negative = inhibition was active: -68.7%.
For `CCCc1cnc2c(c1SCC(=O)N1CCC(C)CC1)c(=O)n(C)c(=O)n2C`, the activity change, negative = inhibition was inactive: -35.1%.
With `COc1cccc(CN(C(=O)COc2ccc(C)cc2)C2CCS(=O)(=O)C2)c1` (stereo not given) the activity change, negative = inhibition was inactive: 38.3%.
With `COc1ccc(CCNc2nc(-c3ccc(F)cc3)c(CC(=O)O)s2)cc1OC` the activity change, negative = inhibition was inconclusive: -55.9%.
With `c1ccc(-c2nc(-c3cccnc3)n[nH]2)cc1` the activity change, negative = inhibition was inactive: 102%.
For `CN(C)C(CNC(=O)c1oc2ccccc2c1CSc1ncn[nH]1)c1ccco1` (stereo not given), the activity change, negative = inhibition was inconclusive: -44.5%.
For `O=C(CCNC(=O)c1ccccc1Cl)NC1=NCCS1`, the activity change, negative = inhibition was inconclusive: -41.7%.
With `C/C(=C\c1ccccc1)CN1CCN(Cc2ccc(C)o2)C(CCO)C1` (stereo not given) the activity change, negative = inhibition was inconclusive: -47.8%.
For `CC(Oc1ccccc1)C(=O)Nc1ccc(C(N)=O)cc1` (stereo not given), the activity change, negative = inhibition was inactive: 7.63%.
In the case of `Cc1cc(C)c([N+](=O)[O-])cc1NCC(=O)N1CCN(c2ccccc2)CC1`, the activity change, negative = inhibition is reported as inconclusive: -45%.
For `CCC(CO)Nc1nc2ccc(Cl)cc2c2ccccc12` (stereo not given), the activity change, negative = inhibition was inconclusive: -41.9%.
For `O=C(NCc1ccccc1F)C1CCCN1C(=O)Nc1ccc(F)cc1` (stereo not given), the activity change, negative = inhibition was inactive: 30.5%.
With `N=C(N)c1ccc(N=Nc2c(O)ccc3c2[nH]c2ccccc23)cc1` the activity change, negative = inhibition was inconclusive: -51.8%.
In the case of `COC(=O)[C@@]1(Cc2ccc(F)cc2)[C@H]2c3cc(C(=O)N4CCCC4)n(CCF)c3C[C@H]2CN1C(=O)c1ccccc1`, the activity change, negative = inhibition is reported as inconclusive: -45.8%.
For `O=[N+]([O-])c1cc(F)c(N2CCCCC2)cc1N1CCOCC1`, the activity change, negative = inhibition was inactive: -28.8%.
For `COc1ccc(NC(=S)NCCc2c[nH]c3ccccc23)c(OC)c1`, the activity change, negative = inhibition was inconclusive: -44.5%.
With `Cc1ccc(S(=O)(=O)N2CCCCC2)cc1NC(=O)CNC(C)c1ccc(Cl)c(Cl)c1` (stereo not given) the activity change, negative = inhibition was inactive: -1.09%.
In the case of `CC1(C)Cc2ccccc2C(N/N=C/c2ccc(Cl)cc2)=N1`, the activity change, negative = inhibition is reported as inconclusive: -57.4%.
With `Cc1cccc(S(=O)(=O)Nc2nc3ccccc3nc2OC(C)C)c1` the activity change, negative = inhibition was inconclusive: -55.3%.
For `CC(C)c1nc(N2CCN(C(=O)c3ccco3)CC2)c(C#N)c2c1COC(C)(C)C2`, the activity change, negative = inhibition was inconclusive: -44.6%.
With `Cc1cccc(N2CCN(S(=O)(=O)c3c(C)noc3/C=C/N(C)C)CC2)c1C` the activity change, negative = inhibition was inconclusive: -52.5%.
With `CCCN1C(=O)c2[nH]nc(-c3ccccc3O)c2C1c1ccc(OCc2ccccc2)c(OC)c1` (stereo not given) the activity change, negative = inhibition was active: -84.1%.
In the case of `COc1ccccc1C(=O)Nc1cccc(NC(C)=O)c1`, the activity change, negative = inhibition is reported as inactive: -26%.
With `COC(=O)CSc1nc(-c2ccc(C)cc2)c2c(c1C#N)CCCC2` the activity change, negative = inhibition was inconclusive: -41%.
In the case of `CN(C)c1ccc(-c2n(C)c3ccccc3[n+]2C)cc1`, the activity change, negative = inhibition is reported as active: -97.1%.
For `O=C(Nc1ccc(S(=O)(=O)N2CCN(Cc3ccccc3)CC2)cc1)c1cnccn1`, the activity change, negative = inhibition was active: -85.9%.
For `Cc1cccc(N2CCN(CCCNc3ncnc4onc(-c5ccc(Cl)cc5)c34)CC2C)c1` (stereo not given), the activity change, negative = inhibition was inactive: -2.42%.
With `Cc1ccc(Cn2ccn(Cc3ccccc3F)c(=O)c2=O)cc1` the activity change, negative = inhibition was inactive: -9.68%.
For `Cc1cccc(OC(=O)c2sc(Cl)nc2C)c1`, the activity change, negative = inhibition was inconclusive: -40.4%.
For `CCn1c(=O)c(C(=O)NNC(=O)c2ccccc2F)c(O)c2ccccc21`, the activity change, negative = inhibition was inconclusive: -48.6%.
In the case of `CCC(C)C(=O)Nc1cc([N+](=O)[O-])ccc1Cl` (stereo not given), the activity change, negative = inhibition is reported as inconclusive: -54.2%.
With `O=C(COc1ccc2c(-c3ccccc3)cc(=O)oc2c1)Nc1cccnc1` the activity change, negative = inhibition was inconclusive: -48.8%.
For `COc1ccccc1CN1CCNC(=O)C1CC(=O)NCC1CCOCC1` (stereo not given), the activity change, negative = inhibition was inactive: -0.795%.
For `CN1CCN(S(=O)(=O)c2ccc(N3CCN(c4ccc(O)cc4)CC3)c([N+](=O)[O-])c2)CC1`, the activity change, negative = inhibition was inconclusive: -52.4%.
With `Cc1nnc(SCC(=O)c2cc(C)n(-c3ccc4c(c3)OCO4)c2C)s1` the activity change, negative = inhibition was active: -65.7%.
In the case of `CCOC(=O)c1c(C)n(-c2ccccc2)c2ccc(O)c(CN(C)C)c12`, the activity change, negative = inhibition is reported as inconclusive: -50.6%.
With `O=C(/C=C/c1ccccc1)N1CCN(Cc2cc(=O)n3nc(-c4ccccc4F)sc3n2)CC1` the activity change, negative = inhibition was inactive: 34.4%.
In the case of `CN(C)S(=O)(=O)c1ccc(C(=O)Nc2nnc(-c3cccs3)o2)cc1`, the activity change, negative = inhibition is reported as inconclusive: -51.2%.
With `O=C(CC[C@H]1O[C@@H](n2cnc3c(NC(=O)c4ccccc4)ncnc32)[C@H](O)[C@@H]1O)N[C@@H](CO)Cc1c[nH]c2ccccc12` the activity change, negative = inhibition was inactive: 4.75%.
With `COc1ccccc1/C=N/NC(=O)CNC(=O)c1ccc(S(=O)(=O)N2CCCC2)cc1` the activity change, negative = inhibition was inactive: -19.6%.
With `COC(=O)c1ccccc1-n1c(C)nc2ccccc2c1=O` the activity change, negative = inhibition was inconclusive: -49.4%.
In the case of `O=C(Nc1ccc(OC(F)(F)F)cc1)c1ccc(S(=O)(=O)N2CCOCC2)o1`, the activity change, negative = inhibition is reported as inconclusive: -43.2%.
In the case of `O=c1[nH]c(C2CCN(S(=O)(=O)c3ccc4c(c3)OCCO4)CC2)nc2c1nnn2Cc1c(F)cccc1Cl`, the activity change, negative = inhibition is reported as active: -74.9%.
With `N#Cc1ccccc1Cn1c(=O)n(CCCC(=O)NCc2ccc3c(c2)OCO3)c(=O)c2sccc21` the activity change, negative = inhibition was inconclusive: -53.5%.
With `CCOC(=O)c1cnc2c(OC)cccc2c1Oc1ccccc1` the activity change, negative = inhibition was inconclusive: -49.6%.
In the case of `CC(=O)Nc1c([N+](=O)[O-])cc(C)c(Cl)c1[N+](=O)[O-]`, the activity change, negative = inhibition is reported as active: -77%.
In the case of `Cc1ccc(-n2c(Cn3nc(C(F)(F)F)cc3C)n[nH]c2=S)cc1`, the activity change, negative = inhibition is reported as inactive: 9.07%.
In the case of `CC(C)CC(NC(=O)CCCNC(=O)CCC(=O)OC1O[C@H]2OC3(C)CC[C@H]4[C@H](C)CCC(C1C)C24OO3)C(=O)O` (stereo not given in full), the activity change, negative = inhibition is reported as active: -63.1%.
With `COc1ccc(OC)c(/C=C/c2ccnc3ccccc23)c1` the activity change, negative = inhibition was active: -98.3%.
In the case of `CNCCCOc1cccc(OC(C)C)c1`, the activity change, negative = inhibition is reported as inactive: 18.2%.
In the case of `CCc1nnc(SCC(=O)Nc2ccccc2Cl)nc1CC`, the activity change, negative = inhibition is reported as inactive: 1.19% and inactive: 8.57%.
In the case of `COc1ccc(CCNC(=O)c2nnn(-c3ccc4c(c3)OCCO4)c2N)cc1OC`, the activity change, negative = inhibition is reported as active: -75.3%.
For `Cc1cc(Br)c(NC(=O)c2c(-c3c(Cl)cccc3Cl)noc2C)c(Br)c1`, the activity change, negative = inhibition was inconclusive: -58.1%.
In the case of `Cc1ccc(/C=C2\Oc3cc(OC(=O)N4CCOCC4)ccc3C2=O)cc1`, the activity change, negative = inhibition is reported as inactive: 44.5%.
For `N#C/C(=C\C=C\c1ccccc1)C(=O)Nc1ccccc1`, the activity change, negative = inhibition was inconclusive: -42.3%.
For `CCCC(=O)N(Cc1cc2cc(OC)ccc2[nH]c1=O)c1ccccc1OC`, the activity change, negative = inhibition was inconclusive: -55.6%.
With `CNC(=O)c1c(O)c2cccc3c2n(c1=O)CC3` the activity change, negative = inhibition was inconclusive: -47%.
In the case of `O=C(CN1C(=O)S/C(=C\c2cccc(Cl)c2)C1=O)NC1C=CS(=O)(=O)C1` (stereo not given), the activity change, negative = inhibition is reported as inconclusive: -59.2%.
